The record followed here is publication PMC9066768.

For the assay, the target named is T1, Flag-RND1 (Rho family GTPase 1) (human) (UniProt Q92730).
T1 sequence: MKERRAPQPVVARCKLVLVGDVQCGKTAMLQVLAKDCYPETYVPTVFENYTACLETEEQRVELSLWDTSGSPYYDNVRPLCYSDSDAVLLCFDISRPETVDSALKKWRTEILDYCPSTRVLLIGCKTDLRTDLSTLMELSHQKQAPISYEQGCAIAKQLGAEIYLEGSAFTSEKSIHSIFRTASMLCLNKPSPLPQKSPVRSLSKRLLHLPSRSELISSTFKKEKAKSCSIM
The experiment in a line: co-IP; 293T cells co-transfected with Flag-RND1 and HA-p53 for 48 h; lysed in IP buffer (50 mM Tris-Cl pH 8.0, 0.5 mM EDTA, 150 mM NaCl, 1% NP-40); IP with anti-Flag, anti-HA or IgG and Protein G Agarose overnight at 4 °C; blotted with anti-RND1 and anti-p53.

These are yes or no findings as the source states them, for the method shown. Binding seen in cells or lysates may run through a third protein. Some results given as binding are weak or reduced against the parent protein; the word gives no strength. Where a sequence is shown, tags or fusion partners need not be part of it.

In the case of HA-p53 (from UniProt P04637 1-393), the binding result is listed as “binds”.
